The target of this experiment is D2LR (Homo sapiens, UniProt P14416). Kind of experiment: inhibition of forskolin-stimulated cAMP production, BRET biosensor.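 Note: Flp-In-CHO cells stably expressing CAMYEL cAMP BRET sensor, agonist plus 10 µM forskolin, net BRET after forskolin-vehicle subtraction, parameters from complete operational model of allosterism and agonism.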 Type of experiment: cell-based. (cAMP levels reflect the balance of adenylyl cyclase and phosphodiesterase activity.)

Chains of the proteins cited; added tags and fusions are not shown.
UniProt P14416, whole entry: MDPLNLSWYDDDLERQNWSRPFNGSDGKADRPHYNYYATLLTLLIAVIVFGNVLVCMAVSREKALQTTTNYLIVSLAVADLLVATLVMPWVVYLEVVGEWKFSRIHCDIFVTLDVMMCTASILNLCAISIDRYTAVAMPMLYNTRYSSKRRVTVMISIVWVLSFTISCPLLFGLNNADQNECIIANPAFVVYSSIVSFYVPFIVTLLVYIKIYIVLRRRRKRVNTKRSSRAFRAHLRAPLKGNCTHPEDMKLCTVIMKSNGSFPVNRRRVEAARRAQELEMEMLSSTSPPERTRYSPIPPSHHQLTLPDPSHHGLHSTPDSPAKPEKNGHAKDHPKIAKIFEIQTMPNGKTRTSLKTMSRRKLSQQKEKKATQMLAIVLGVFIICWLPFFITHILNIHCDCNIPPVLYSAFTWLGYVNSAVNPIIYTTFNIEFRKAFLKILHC

For the compound `CCN(CC)C(=O)N[C@H]1C=C2c3cccc4[nH]cc(c34)C[C@H]2N(C)C1` [lisuride, reference compound], the LogτA is 0.62 ± 0.05 and the τA amounted to 4.2.
